According to article PMC4135091:
Results are given in words; binding and its absence hold for the method and conditions named. For some assays here: In cells and extracts the contact can be indirect. Some results given as binding are weak or reduced against the parent protein; the word gives no strength.

Columns and labels:
[1] = target: FLAG-tagged N1 (vaccinia virus (VACV)) (UniProt P17361); assay: co-IP
[2] = target: TAP-tagged N1 expressed from the recombinant vaccinia virus vN1.TAP (vaccinia virus strain Western Reserve) (UniProt P17361); assay: dimer-sized band on a gel after tandem affinity purification

| Substance | binding [1] | binding [2] |
| --- | --- | --- |
| N1 fused with Renilla luciferase at its N terminus (from UniProt P17361 1-117) | binds |  |
| TAP-tagged N1 expressed from the recombinant vaccinia virus vN1.TAP (from UniProt P17361 1-117) |  | binds |
